According to PubChem BioAssay AID493014 (National Center for Advancing Translational Sciences (NCATS), 2011):
This is one part of the list. These are further read-outs of the screen, such as a control signal, another cell line or another target. No call is given for them. Most of these compounds were active or inconclusive in the main read-out, so they are no random draw. Words in brackets tell the shape of the fitted curve; partial curves, single points and poor fits give uncertain potencies.

Assay: qHTS Assay to Find Inhibitors of Chronic Active B-Cell Receptor Signaling
Details: ABC-DLBCL IkBa-CBG/CBR reporter, luminescence ratio (green luciferase fused to IkBa over red control in TMD8 lymphoma cells), 4 h
Procedure, shortened: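 Compounds up to 46 uM were incubated four hours with TMD8 cells whose green CBG68 luciferase is fused to IkappaBalpha; red CBR luminescence normalised the signal, and concentration-effect curves were fitted to fusion, red and ratio data.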

[1] = measured here: CBR red luminescence, cell number
[2] = measured here: IkBa-CBG green luminescence

Compound	AC50 [1]	AC50 [2]
COc1ccc(/C=N/NC(=O)c2cc(-c3ccccc3)nc3ccccc23)cc1O	35.5 µM [falling, single point]	
Nc1cccc(-c2nc3ccc(N)cc3s2)c1	10 µM [falling, partial curve]	
Cc1ccc(-n2c(-c3ccccc3)c[n+]3c2CCc2ccccc2-3)c(C)c1	28.2 µM [falling, single point]	
CC(=O)Nc1nc2cc([N+](=O)[O-])ccc2s1	7.31 µM [falling, single point]	
Cc1cc2c(c(=O)o1)C1O[C@](CCCCN3C(=O)c4ccccc4C3=O)(Cc3cc(C#N)ccc31)O2		5.62 µM [rising, partial curve, poor fit]
O=C1[C@@H]2[C@H](C(=O)N1n1cnnc1)[C@H]1C=C[C@@H]2C1	11.2 µM [rising, partial curve, poor fit]	
CCCCOc1cccc(C2(C(=O)O)CCCC2)c1	29.1 µM [falling, single point]	
COC(=O)c1ccc(Oc2ccc(S(=O)(=O)N3CCCCC3)cc2N)cc1	17.8 µM [falling, single point]	
COc1ccc(S(=O)(=O)NCc2ccc(C(=O)N(C)Cc3ccco3)cc2)cc1	20.6 µM [rising, partial curve, poor fit]	
N#C/C(=C\c1ccc(-c2ccc(C(=O)O)cc2)o1)c1nc2ccccc2[nH]1	0.316 µM [falling, full curve, poor fit]	
O=C(Nc1nc2ccccc2s1)C1CCN(S(=O)(=O)c2cc([N+](=O)[O-])ccc2Cl)CC1	11.2 µM [falling, partial curve, poor fit]	
Cc1cc(O)c(C(=O)Nc2cccc(Cl)c2)c(=O)n1C	5.62 µM [rising, full curve, poor fit]	
COC(=O)[C@@H](Cc1ccccc1)NC(=O)NCCc1ccccc1	12.6 µM [rising, single point]	
O=[N+]([O-])c1ccc(O)c(/C=N/Nc2ccccc2[N+](=O)[O-])c1	2.51 µM [rising, partial curve, poor fit]	
CC(C)CCNC(=O)C(=O)NC1CCCC1	18.4 µM [falling, partial curve, poor fit]	
O=C(O)CNC(=O)c1ccccc1NC(=O)c1ccco1	29.1 µM [falling, single point]	
COc1ccccc1-n1ccnc(SCC(=O)NCCc2ccccc2)c1=O	8.2 µM [falling, partial curve]	
O=c1c2cc(NC(=S)N3CCC(N4CCCCC4)CC3)ccc2nc2n1CCCCC2	14.1 µM [falling, partial curve, poor fit]	
Cc1cc(NC(=O)CN2C(=O)C3CC=CCC3C2=O)no1 (stereo not given)	11.6 µM [falling, partial curve, poor fit]	

Compounds listed so far that contain an aryl methoxy group:
Compound	AC50 [1]	AC50 [2]
COc1ccc(/C=N/NC(=O)c2cc(-c3ccccc3)nc3ccccc23)cc1O	35.5 µM [falling, single point]	
COc1ccc(S(=O)(=O)NCc2ccc(C(=O)N(C)Cc3ccco3)cc2)cc1	20.6 µM [rising, partial curve, poor fit]	
COc1ccccc1-n1ccnc(SCC(=O)NCCc2ccccc2)c1=O	8.2 µM [falling, partial curve]	

The results go on:

Compound	AC50 [1]	AC50 [2]
Cc1cc(C)n(-c2nc(SCC(=O)Nc3nccs3)c3c4c(sc3n2)COC(C)(C)C4)n1	4.47 µM [rising, single point]	
COc1ccc(-c2nnn(CC(=O)N(CC3CCCO3)C(C(=O)NC(C)(C)C)c3ccco3)n2)cc1OC (stereo not given)	35.5 µM [rising, single point]	
CCOC(=O)c1n[nH]n(-c2cc(Cl)cc(Cl)c2)c1=O	11.2 µM [falling, partial curve, poor fit]	
Cc1cc(C)c2nc(C(F)(F)F)nc(NCCCN3CCOCC3)c2c1	2.06 µM [rising, partial curve, poor fit]	10.3 µM [falling, partial curve]
COc1ccc(/C=C/C(=O)c2ccc(O)cc2)cc1CN1CCOCC1	29.1 µM [falling, single point]	
O=C(COC(=O)/C=C/c1ccc(Cl)c(Cl)c1)NC1CCS(=O)(=O)C1 (stereo not given)	29.1 µM [falling, single point]	
Cc1ccccc1NC(=O)Nc1cccs1	16.4 µM [falling, single point]	
NC(=O)COC(=O)CCCc1nc2ccccc2s1	7.31 µM [rising, partial curve, poor fit]	
CC[C@]12c3[nH]c4cc(-c5ccco5)ccc4c3CCN1C(=O)[C@@H](CC(=O)NCC13CC4CC(CC(C4)C1)C3)C[C@@H]2C(=O)N1CCN(C(=O)c2ccco2)CC1		29.1 µM [falling, single point]
Cc1cc(N)n2nc(-c3ccc(C(C)(C)C)cc3)cc2n1	14.6 µM [rising, partial curve]	
CCc1ccc(C2=NN(CCC(=O)NC3CC3)C(=O)CC2)cc1	32.6 µM [rising, partial curve, poor fit]	
CN(Cc1ccccc1)/C(=N/O)c1cccc(Cl)c1	15.8 µM [rising, single point]	
C=CCC[C@H](Cc1ccc(F)cc1)C(=O)OC[C@@H](Cc1c[nH]c2ccccc12)NC(=O)[C@H](CC=C)CC(=O)N[C@H](CO)Cc1ccccc1	29.1 µM [falling, single point]	
CCCOc1ccc(NC(=O)CC2C(=O)N(Cc3ccccc3)C(=S)N2Cc2cccs2)cc1 (stereo not given)	2.31 µM [falling, partial curve, poor fit]	23.1 µM [rising, partial curve, poor fit]
COCCn1c(SCC(=O)NCc2ccco2)nnc1C(C)C	0.731 µM [rising, full curve, poor fit]	
CC(=O)c1sc(NC(=O)COc2ccc(Cl)cc2Cl)nc1C	20 µM [falling, single point]	
COc1ccccc1OCC(=O)Nn1c(=S)[nH]c2ncccc2c1=O	0.92 µM [falling, partial curve, poor fit]	
COc1ccc(/C=C(/NC(=O)c2ccccc2)C(=O)N2CCC(C)CC2)cc1	35.5 µM [rising, single point]	
O=C(NC12CC3CC(CC(C3)C1)C2)c1ccc(-c2ccc(Cl)cc2)o1	9.2 µM [rising, partial curve, poor fit]	
